Source: the supplement of paper PMC10849652
Some of the results follow.

Amino acid sequences for entries named in this document (tags omitted). A change or cut given only in a name is not applied to a line headed by its entry.
UniProt P53778: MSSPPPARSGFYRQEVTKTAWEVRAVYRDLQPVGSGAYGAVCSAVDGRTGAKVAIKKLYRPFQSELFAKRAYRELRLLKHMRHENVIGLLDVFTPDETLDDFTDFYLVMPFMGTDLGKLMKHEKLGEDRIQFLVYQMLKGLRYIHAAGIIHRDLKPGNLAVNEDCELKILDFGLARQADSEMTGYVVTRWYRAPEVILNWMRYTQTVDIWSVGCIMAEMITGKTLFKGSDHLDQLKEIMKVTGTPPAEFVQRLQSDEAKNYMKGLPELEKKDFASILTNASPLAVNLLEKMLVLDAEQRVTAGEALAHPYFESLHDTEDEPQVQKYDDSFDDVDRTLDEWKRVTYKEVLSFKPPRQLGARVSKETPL
UniProt O75608: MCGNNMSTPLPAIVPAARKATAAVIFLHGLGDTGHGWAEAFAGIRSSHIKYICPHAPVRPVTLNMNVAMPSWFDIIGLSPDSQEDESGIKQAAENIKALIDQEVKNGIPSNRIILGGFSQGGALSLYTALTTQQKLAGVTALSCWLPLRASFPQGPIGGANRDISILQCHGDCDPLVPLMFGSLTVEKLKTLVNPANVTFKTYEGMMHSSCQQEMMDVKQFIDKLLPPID
UniProt P28482, whole entry, looked up: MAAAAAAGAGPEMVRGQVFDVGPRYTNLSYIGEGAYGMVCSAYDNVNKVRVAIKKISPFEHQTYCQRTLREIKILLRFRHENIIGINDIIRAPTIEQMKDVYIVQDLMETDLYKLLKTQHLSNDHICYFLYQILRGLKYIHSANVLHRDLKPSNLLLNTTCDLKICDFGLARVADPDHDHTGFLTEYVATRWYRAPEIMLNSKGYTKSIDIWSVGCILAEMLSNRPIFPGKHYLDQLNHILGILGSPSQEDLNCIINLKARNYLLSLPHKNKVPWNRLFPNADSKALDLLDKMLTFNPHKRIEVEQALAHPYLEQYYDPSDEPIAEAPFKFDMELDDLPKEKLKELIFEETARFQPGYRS
UniProt Q9NQ29: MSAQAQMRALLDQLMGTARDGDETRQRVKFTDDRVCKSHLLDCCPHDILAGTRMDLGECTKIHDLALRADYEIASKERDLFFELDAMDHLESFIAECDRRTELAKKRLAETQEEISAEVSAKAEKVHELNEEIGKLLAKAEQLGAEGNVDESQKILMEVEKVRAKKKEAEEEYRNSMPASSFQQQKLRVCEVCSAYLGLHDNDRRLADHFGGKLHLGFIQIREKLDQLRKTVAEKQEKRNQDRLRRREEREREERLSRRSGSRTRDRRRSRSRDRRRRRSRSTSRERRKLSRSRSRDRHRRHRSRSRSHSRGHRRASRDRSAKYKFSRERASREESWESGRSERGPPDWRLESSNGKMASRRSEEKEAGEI
UniProt Q86V48: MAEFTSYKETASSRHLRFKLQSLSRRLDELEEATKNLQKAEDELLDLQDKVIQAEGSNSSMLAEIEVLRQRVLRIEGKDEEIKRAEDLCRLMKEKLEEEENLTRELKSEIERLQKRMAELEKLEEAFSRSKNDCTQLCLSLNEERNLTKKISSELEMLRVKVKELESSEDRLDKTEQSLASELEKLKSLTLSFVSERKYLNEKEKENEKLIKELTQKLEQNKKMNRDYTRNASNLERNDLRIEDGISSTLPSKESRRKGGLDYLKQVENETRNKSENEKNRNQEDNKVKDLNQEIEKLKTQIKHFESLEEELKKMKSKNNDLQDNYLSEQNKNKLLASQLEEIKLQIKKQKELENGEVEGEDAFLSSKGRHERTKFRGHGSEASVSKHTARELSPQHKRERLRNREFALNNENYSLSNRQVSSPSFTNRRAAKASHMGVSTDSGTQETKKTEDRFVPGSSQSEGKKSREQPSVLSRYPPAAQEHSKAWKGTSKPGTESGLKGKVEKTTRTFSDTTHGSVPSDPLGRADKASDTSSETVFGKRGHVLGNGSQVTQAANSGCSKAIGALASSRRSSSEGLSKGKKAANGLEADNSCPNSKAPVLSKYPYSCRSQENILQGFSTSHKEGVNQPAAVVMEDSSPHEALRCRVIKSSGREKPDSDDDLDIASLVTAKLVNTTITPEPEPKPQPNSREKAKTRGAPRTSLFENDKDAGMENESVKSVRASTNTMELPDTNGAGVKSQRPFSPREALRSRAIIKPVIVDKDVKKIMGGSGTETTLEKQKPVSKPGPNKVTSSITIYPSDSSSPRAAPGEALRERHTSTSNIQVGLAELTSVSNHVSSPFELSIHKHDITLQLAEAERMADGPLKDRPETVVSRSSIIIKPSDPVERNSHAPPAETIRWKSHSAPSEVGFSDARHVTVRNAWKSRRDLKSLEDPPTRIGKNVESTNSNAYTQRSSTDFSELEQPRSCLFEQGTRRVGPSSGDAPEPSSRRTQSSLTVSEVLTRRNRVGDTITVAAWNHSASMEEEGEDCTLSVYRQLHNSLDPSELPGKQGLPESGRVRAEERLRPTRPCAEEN
UniProt Q16539, whole entry, looked up: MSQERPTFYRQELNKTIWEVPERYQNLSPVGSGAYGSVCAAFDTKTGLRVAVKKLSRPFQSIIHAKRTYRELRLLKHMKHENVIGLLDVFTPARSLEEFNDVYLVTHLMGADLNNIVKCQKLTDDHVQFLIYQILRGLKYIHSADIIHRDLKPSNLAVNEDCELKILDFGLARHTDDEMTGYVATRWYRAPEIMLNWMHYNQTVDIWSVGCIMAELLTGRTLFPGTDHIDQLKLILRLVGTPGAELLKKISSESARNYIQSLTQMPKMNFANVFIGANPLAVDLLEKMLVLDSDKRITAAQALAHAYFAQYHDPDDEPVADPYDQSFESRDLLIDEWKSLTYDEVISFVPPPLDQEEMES
UniProt Q02779: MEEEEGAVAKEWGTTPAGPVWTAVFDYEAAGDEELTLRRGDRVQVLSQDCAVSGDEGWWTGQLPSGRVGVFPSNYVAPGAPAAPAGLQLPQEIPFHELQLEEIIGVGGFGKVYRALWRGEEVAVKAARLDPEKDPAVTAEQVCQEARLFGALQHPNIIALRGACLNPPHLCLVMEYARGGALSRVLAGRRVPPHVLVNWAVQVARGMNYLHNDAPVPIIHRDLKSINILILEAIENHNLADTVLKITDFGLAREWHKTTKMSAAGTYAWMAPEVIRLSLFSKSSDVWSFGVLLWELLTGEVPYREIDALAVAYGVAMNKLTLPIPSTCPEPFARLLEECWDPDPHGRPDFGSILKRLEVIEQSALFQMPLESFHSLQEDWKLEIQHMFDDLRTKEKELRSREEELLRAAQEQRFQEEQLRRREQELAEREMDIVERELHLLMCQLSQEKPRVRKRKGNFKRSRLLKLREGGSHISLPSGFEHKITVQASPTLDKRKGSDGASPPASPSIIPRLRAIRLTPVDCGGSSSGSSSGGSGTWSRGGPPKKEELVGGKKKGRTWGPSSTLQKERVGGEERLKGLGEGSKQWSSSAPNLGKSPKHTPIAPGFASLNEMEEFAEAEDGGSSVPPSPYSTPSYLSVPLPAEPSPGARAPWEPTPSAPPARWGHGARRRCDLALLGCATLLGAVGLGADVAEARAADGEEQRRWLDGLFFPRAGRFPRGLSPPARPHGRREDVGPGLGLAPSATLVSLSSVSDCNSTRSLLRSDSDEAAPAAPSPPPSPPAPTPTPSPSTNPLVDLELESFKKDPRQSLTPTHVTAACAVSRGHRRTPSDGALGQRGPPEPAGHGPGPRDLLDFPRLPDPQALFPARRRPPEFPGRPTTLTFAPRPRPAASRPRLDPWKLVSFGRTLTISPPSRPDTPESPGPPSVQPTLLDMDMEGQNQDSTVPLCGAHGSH
UniProt P07948: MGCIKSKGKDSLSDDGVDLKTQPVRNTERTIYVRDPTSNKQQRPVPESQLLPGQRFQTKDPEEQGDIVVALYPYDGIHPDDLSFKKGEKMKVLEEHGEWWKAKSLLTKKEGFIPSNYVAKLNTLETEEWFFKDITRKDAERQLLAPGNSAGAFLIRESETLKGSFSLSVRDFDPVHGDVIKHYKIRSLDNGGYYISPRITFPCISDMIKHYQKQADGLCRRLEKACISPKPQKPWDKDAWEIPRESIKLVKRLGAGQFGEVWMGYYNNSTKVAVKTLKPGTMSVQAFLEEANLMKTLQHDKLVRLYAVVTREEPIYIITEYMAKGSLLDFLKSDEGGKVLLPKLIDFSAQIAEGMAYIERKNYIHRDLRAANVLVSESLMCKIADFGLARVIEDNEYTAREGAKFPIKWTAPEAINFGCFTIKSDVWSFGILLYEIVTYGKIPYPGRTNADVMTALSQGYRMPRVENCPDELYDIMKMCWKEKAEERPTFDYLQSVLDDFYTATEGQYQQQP
UniProt Q9UI95, whole entry, looked up: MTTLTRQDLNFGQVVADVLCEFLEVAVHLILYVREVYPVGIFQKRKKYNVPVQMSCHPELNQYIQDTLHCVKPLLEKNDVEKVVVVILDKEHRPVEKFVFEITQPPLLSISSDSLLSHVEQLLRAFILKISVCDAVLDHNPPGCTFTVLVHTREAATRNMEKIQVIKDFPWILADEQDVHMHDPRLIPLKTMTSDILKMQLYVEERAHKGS
UniProt Q9Y333: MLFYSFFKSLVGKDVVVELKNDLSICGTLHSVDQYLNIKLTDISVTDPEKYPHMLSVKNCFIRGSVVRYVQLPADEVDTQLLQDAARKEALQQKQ
UniProt P12980: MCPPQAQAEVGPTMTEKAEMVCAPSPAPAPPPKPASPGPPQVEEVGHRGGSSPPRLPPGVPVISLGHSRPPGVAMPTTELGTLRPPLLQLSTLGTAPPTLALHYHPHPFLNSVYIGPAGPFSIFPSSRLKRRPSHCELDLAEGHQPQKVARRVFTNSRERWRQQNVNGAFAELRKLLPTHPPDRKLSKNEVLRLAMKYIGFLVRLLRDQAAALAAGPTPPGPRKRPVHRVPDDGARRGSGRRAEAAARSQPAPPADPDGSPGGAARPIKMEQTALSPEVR
UniProt O95819: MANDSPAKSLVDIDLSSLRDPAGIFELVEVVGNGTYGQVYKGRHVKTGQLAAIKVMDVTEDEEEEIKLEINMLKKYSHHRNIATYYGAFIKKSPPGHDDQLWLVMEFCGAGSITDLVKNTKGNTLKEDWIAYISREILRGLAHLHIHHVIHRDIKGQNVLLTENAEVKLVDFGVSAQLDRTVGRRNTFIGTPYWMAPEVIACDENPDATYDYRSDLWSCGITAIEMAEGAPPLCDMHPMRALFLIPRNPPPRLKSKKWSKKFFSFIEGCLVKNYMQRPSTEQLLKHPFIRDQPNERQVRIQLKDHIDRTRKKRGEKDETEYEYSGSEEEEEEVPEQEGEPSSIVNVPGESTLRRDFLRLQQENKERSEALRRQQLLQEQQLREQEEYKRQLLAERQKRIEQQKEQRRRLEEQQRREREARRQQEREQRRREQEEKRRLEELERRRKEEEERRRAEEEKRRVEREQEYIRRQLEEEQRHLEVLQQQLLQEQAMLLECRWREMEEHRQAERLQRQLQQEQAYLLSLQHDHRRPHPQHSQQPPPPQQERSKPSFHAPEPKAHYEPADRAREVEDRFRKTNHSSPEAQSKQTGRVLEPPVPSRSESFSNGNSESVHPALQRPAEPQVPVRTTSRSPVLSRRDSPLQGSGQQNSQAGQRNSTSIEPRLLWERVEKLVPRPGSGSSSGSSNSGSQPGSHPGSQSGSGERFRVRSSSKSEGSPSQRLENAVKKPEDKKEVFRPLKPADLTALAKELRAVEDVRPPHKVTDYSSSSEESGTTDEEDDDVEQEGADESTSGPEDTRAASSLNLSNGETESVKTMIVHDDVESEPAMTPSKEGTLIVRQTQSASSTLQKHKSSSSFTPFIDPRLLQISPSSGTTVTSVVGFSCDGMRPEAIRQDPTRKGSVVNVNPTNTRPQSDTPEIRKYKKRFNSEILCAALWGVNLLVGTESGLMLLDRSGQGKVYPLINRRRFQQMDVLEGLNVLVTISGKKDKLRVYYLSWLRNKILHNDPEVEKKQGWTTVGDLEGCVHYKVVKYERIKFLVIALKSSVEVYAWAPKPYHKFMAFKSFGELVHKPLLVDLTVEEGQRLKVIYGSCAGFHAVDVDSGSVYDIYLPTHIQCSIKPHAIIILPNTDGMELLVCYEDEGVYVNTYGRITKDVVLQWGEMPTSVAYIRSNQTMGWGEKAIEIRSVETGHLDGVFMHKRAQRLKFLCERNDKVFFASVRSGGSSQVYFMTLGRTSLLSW
UniProt P51884: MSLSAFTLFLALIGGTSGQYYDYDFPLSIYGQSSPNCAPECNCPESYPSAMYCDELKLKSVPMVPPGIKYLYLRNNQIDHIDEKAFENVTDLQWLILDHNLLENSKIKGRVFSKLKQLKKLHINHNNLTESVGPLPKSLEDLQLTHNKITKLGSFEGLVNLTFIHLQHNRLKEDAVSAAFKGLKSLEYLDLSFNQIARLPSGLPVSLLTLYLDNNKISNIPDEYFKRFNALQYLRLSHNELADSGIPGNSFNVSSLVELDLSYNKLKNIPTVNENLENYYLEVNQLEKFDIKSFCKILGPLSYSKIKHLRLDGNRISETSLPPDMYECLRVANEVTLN

How the values were obtained:
Test in all cases: log2 fold change, soluble protein after heating vs DMSO (PISA); higher = thermal stabilisation; K562 cells, 10 uM, 30 min; active = over 0.2 and 3.5 SD of the protein, either way, in both replicates (recomputed)
[1] = compound: NC(=O)Nc1cc(-c2cccc(F)c2)sc1C(=O)N[C@H]1CCCNC1
In short: (§1)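 K562 cells at 2×10^6 cells/mL were treated for 30 min with 10 μM compound, and aliquots were heated for 3 min over 48°C-58°C before pooling. Extraction used PBS with 0.5% NP-40 at 4°C, and soluble protein was the supernatant after 21,000xg for 90 min, measured by TMTpro 16plex LC-MS/MS with channel sums equalised. Thermal stability values, relative to control samples and from duplicates, are log2 fold changes.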

[2] = compound: NC(=O)c1cnc(N[C@@H]2CCCC[C@@H]2N)nc1Nc1cccc(-n2nccn2)c1
In short: as §1

[3] = compound: NC1(c2ccc(-c3nc4ccn5c(=O)[nH]nc5c4cc3-c3ccccc3)cc2)CCC1
In short: as §1

[4] = compound: NCC(=O)Nc1ccc(-n2nc(C(F)(F)F)cc2-c2ccc3c(ccc4ccccc43)c2)cc1
In short: as §1

entinostat = compound: Nc1ccccc1NC(=O)c1ccc(CNC(=O)OCc2cccnc2)cc1 [entinostat]
In short: as §1

vorinostat = compound: O=C(CCCCCCC(=O)Nc1ccccc1)NO [vorinostat]
In short: as §1

citarinostat = compound: O=C(CCCCCCNC(=O)c1cnc(N(c2ccccc2)c2ccccc2Cl)nc1)NO [citarinostat]
In short: as §1

silmitasertib = compound: O=C(O)c1ccc2c(c1)nc(Nc1cccc(Cl)c1)c1ccncc12 [silmitasertib]
In short: as §1

[5] = compound: O=C1NC(=O)C(c2cnc3ccccn23)=C1c1cn2c3c(cc(F)cc13)CN(C(=O)N1CCCCC1)CC2
In short: as §1

[6] = compound: c1cc(OCCN2CCCCC2)cc(-c2n[nH]c3ccc(-c4nnc[nH]4)cc23)c1
In short: as §1

| Target | log2 fold change [1] | log2 fold change [2] | log2 fold change [3] | log2 fold change [4] | log2 fold change (entinostat) | log2 fold change (vorinostat) | log2 fold change (citarinostat) | log2 fold change (silmitasertib) | log2 fold change [5] | log2 fold change [6] |
| --- | --- | --- | --- | --- | --- | --- | --- | --- | --- | --- |
| LYSMD3 (UniProt Q7Z3D4) | inactive: 0.151 | inactive: 0.224 | inactive: 0.008 | inactive: -0.119 | inactive: 0.003 | inactive: 0.08 | inactive: -0.007 | inactive: 0.012 | inactive: -0.051 | inactive: 0.038 |
| MAPK12 (UniProt P53778) | inactive: -0.076 | inactive: -0.095 | inactive: -0.09 | inactive: 0.014 | inactive: 0.012 | inactive: 0.08 | inactive: 0.046 | inactive: -0.006 | active: 0.348 | inactive: 0.018 |
| MAP1LC3B2 (UniProt A6NCE7) | inactive: -0.023 | inactive: -0.022 | inactive: -0.128 | inactive: -0.085 | inactive: 0.012 | inactive: -0.058 | inactive: 0.046 | inactive: -0.015 | inactive: -0.001 | inactive: -0.103 |
| MAP3K7 (UniProt O43318) | inactive: -0.162 | inactive: 0.033 | inactive: -0.141 | inactive: -0.086 | inactive: 0.035 | inactive: 0.033 | inactive: 0.063 | inactive: 0.004 | inactive: 0.091 | inactive: -0.068 |
| LYAR (UniProt Q9NX58) | inactive: 0.22 | inactive: 0.309 | inactive: 0.397 | inactive: 0.258 | inactive: -0.142 | inactive: -0.087 | inactive: -0.148 | inactive: 0.33 | inactive: 0.361 | inactive: -0.241 |
| LYPLA1 (UniProt O75608) | inactive: -0.058 | inactive: -0.036 | inactive: -0.041 | inactive: -0.034 | inactive: 0.023 | inactive: -0.117 | inactive: 0.015 | inactive: -0.041 | inactive: -0.019 | inactive: -0.006 |
| MAPRE1 (UniProt Q15691) | inactive: 0.003 | inactive: -0.062 | inactive: -0.112 | inactive: -0.046 | inactive: 0.014 | inactive: -0.003 | inactive: 0.044 | inactive: -0.038 | inactive: -0.069 | inactive: 0.014 |
| MAPK1 (UniProt P28482) | inactive: 0.022 | inactive: -0.028 | inactive: -0.015 | inactive: 0.032 | inactive: -0.023 | inactive: 0.004 | inactive: 0.05 | inactive: -0.026 | inactive: 0.022 | inactive: 0.011 |
| LUC7L (UniProt Q9NQ29) | inactive: -0.061 | inactive: 0.011 | inactive: 0.17 | inactive: -0.043 | inactive: -0.01 | inactive: -0.058 | inactive: -0.052 | inactive: -0.006 | inactive: 0.133 | inactive: -0.095 |
| MAN2C1 isoform 4 (UniProt Q9NTJ4) | inactive: -0.059 | inactive: -0.012 | inactive: -0.007 | inactive: -0.006 | inactive: -0.049 | inactive: -0.018 | inactive: -0.014 | inactive: 0.065 | inactive: 0.045 | inactive: -0.048 |
| MAN2B2 (UniProt Q9Y2E5) | inactive: 0.063 | inactive: -0.099 | inactive: -0.262 | inactive: 0.089 | inactive: -0.018 |  | inactive: 0.089 | inactive: -0.029 | inactive: -0.058 | inactive: -0.005 |
| LUZP1 (UniProt Q86V48) | inactive: 0.055 | inactive: 0.089 | inactive: 0.087 | inactive: 0.058 | inactive: -0.081 | inactive: -0.119 |  | inactive: 0.114 | inactive: 0.084 |  |
| MAGED1 isoform 2 (UniProt Q9Y5V3) | inactive: 0.098 | inactive: -0.029 |  | inactive: -0.258 | inactive: 0 |  |  |  | inactive: 0.262 |  |
| LRRC8D (UniProt Q7L1W4) | inactive: -0.032 | inactive: 0 | inactive: -0.07 | inactive: -0.067 | inactive: 0.123 |  | inactive: -0.06 | inactive: 0.038 | inactive: 0.273 | inactive: -0.239 |
| MAP4 isoform 5 (UniProt P27816) | inactive: 0.135 | inactive: 0.087 | inactive: 0.109 |  | inactive: 0.075 |  | inactive: -0.121 | inactive: 0.012 | active: 0.423 | inactive: 0.074 |
| MADD isoform 2 (UniProt Q8WXG6) | inactive: -0.025 | inactive: -0.055 | inactive: -0.022 |  | inactive: -0.006 |  | inactive: -0.004 | inactive: 0.211 | inactive: 0.07 | inactive: -0.112 |
| MARK2 (UniProt E9PC69) | inactive: -0.513 | inactive: -0.401 |  | inactive: -0.213 | inactive: 0.101 |  | inactive: 0.024 |  | inactive: 0.082 | inactive: -0.28 |

Taken from above.
Value for MAP4 isoform 5 (UniProt P27816) under log2 fold change (citarinostat): inactive: -0.121
Value for MAPRE1 (UniProt Q15691) under log2 fold change (citarinostat): inactive: 0.044

(cont.)

| Target | log2 fold change [1] | log2 fold change [2] | log2 fold change [3] | log2 fold change [4] | log2 fold change (entinostat) | log2 fold change (vorinostat) | log2 fold change (citarinostat) | log2 fold change (silmitasertib) | log2 fold change [5] | log2 fold change [6] |
| --- | --- | --- | --- | --- | --- | --- | --- | --- | --- | --- |
| LRRC8C (UniProt Q8TDW0) | inactive: 0.062 | inactive: -0.063 | inactive: 0.272 |  | inactive: -0.136 | inactive: 0.249 | inactive: -0.331 | inactive: 0.084 | inactive: 0.416 | inactive: -0.106 |
| MAPK14 (UniProt Q16539) | inactive: -0.019 | inactive: -0.047 | inactive: -0.136 | inactive: -0.033 | inactive: 0.022 | inactive: 0.027 | inactive: 0.051 | inactive: 0.37 |  | inactive: 0.058 |
| LTBR (UniProt P36941) | inactive: 0.018 | inactive: -0.016 |  | inactive: -0.038 | inactive: -0.006 | inactive: -0.235 | inactive: -0.313 |  | inactive: -0.183 | inactive: -0.059 |
| MAP3K20 isoform 2 (UniProt Q9NYL2) | inactive: 0.09 | inactive: -0.041 | inactive: 0.099 |  | inactive: 0.056 |  |  | inactive: 0.009 | inactive: -0.008 |  |
| MAP3K10 (UniProt Q02779) | inactive: 0.037 | inactive: -0.048 |  | inactive: 0.014 | inactive: -0.02 | inactive: -0.096 |  |  |  |  |
| LTBP4 (UniProt Q8N2S1) | inactive: -0.011 | inactive: -0.075 | inactive: -0.314 |  | inactive: -0.064 | inactive: -0.015 | inactive: -0.058 | inactive: -0.005 | inactive: -0.109 | inactive: -0.028 |
| MARK3 (UniProt P27448) | inactive: -0.125 | inactive: -0.181 | inactive: -0.006 | inactive: -0.113 | inactive: 0.064 | inactive: 0.139 | inactive: 0.103 | inactive: -0.02 | inactive: -0.017 | inactive: -0.317 |
| MAGI3 isoform 1 (UniProt Q5TCQ9) | inactive: -0.04 | inactive: -0.219 | inactive: -0.154 | inactive: -0.024 | inactive: -0.065 |  | inactive: 0 | inactive: -0.178 | inactive: 0 | inactive: -0.026 |
| LYN isoform 2 (UniProt P07948) | inactive: 0.162 | inactive: 0.014 |  | inactive: -0.073 | inactive: -0.155 |  |  |  | inactive: 0.082 |  |
| MAK16 (UniProt Q9BXY0) | inactive: 0.112 | inactive: -0.06 | inactive: 0.029 | inactive: 0.125 | inactive: -0.004 | inactive: -0.068 | inactive: 0.038 | inactive: 0.107 | inactive: 0.204 | inactive: -0.039 |
| MAD2L2 (UniProt Q9UI95) | inactive: 0.148 | inactive: -0.032 |  |  | inactive: 0.044 | inactive: 0.168 | inactive: 0.083 |  | inactive: -0.027 | inactive: -0.165 |
| LSM2 (UniProt Q9Y333) | inactive: 0.017 | inactive: -0.013 | inactive: -0.033 | inactive: 0.009 | inactive: -0.054 | inactive: 0.021 | inactive: 0.053 | inactive: 0.012 | inactive: -0.025 | inactive: -0.042 |
| LYL1 (UniProt P12980) | inactive: 0.143 | inactive: -0.029 | inactive: 0.007 | inactive: 0.319 | inactive: -0.122 |  | inactive: -0.257 | inactive: 0.092 | inactive: -0.457 | inactive: 0.106 |
| MAP4K4 isoform 3 (UniProt O95819) | inactive: -0.199 | inactive: -0.154 | inactive: -0.204 | inactive: -0.013 | inactive: 0.07 | inactive: 0.075 | inactive: 0.044 | inactive: -0.024 |  | inactive: -0.179 |
| MAD2L1BP isoform 3 (UniProt Q15013) | inactive: 0.005 | inactive: 0.021 | inactive: -0.047 | inactive: 0.001 | inactive: -0.006 |  | inactive: 0.056 | inactive: -0.054 | inactive: -0.032 | inactive: -0.04 |
| LUM (UniProt P51884) | inactive: -0.067 | inactive: -0.108 |  | inactive: -0.002 | inactive: -0.033 |  | inactive: -0.042 |  | inactive: 0.185 | inactive: 0.47 |
